This is one part of the list.
Columns and labels:
Assay in all cases: log2 fold change, soluble protein after heating vs DMSO (PISA); higher = thermal stabilisation; K562 cells, 10 uM, 30 min; active = over 0.2 and 3.5 SD of the protein, either way, in both replicates (recomputed)
[1] = compound: CS(=O)(=O)c1ccc(-c2cnc(N)c(C(=O)Nc3ccccc3)n2)cc1
Procedure, shortened: (§1)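 Thermal stability values are relative to control samples and come from duplicates. They are expressed as log2 fold changes. For measurement, K562 cells (2×10^6 cells/mL) received 10 μM compound for 30 min, and aliquots were heated for 3 min over 48°C-58°C, pooled, and extracted at 4°C in PBS with 0.5% NP-40. Soluble protein, the supernatant after 21,000xg for 90 min, was quantified by TMTpro 16plex LC-MS/MS with equalised channel sums.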

Chains of the proteins cited; added tags and fusions are not shown. Lines headed by an entry give the natural chain unless they say otherwise; changes in a name come on top.
UniProt Q4KMQ2: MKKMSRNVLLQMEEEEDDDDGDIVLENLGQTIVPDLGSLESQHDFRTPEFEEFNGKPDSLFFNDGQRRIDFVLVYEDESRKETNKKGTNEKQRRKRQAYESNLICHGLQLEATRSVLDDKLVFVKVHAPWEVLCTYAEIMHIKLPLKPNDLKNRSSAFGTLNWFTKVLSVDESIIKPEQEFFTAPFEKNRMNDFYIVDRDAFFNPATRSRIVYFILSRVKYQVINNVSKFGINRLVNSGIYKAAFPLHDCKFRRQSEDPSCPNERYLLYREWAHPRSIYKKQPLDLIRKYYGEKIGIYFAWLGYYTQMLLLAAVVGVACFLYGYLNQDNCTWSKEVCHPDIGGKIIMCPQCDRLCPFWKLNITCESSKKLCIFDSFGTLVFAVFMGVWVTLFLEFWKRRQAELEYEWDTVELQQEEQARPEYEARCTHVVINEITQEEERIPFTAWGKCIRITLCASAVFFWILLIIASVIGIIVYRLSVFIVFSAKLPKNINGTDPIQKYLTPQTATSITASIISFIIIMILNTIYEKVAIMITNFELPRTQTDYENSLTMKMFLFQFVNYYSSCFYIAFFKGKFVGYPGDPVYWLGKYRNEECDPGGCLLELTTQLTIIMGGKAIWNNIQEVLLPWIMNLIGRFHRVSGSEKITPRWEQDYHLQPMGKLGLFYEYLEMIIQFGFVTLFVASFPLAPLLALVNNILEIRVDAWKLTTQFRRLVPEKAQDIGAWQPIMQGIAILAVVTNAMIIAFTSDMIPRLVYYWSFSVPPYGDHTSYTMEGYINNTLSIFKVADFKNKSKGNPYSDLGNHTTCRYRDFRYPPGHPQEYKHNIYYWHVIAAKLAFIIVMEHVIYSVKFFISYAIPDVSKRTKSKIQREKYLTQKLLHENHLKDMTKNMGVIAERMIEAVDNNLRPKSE
UniProt P02647, whole entry, looked up: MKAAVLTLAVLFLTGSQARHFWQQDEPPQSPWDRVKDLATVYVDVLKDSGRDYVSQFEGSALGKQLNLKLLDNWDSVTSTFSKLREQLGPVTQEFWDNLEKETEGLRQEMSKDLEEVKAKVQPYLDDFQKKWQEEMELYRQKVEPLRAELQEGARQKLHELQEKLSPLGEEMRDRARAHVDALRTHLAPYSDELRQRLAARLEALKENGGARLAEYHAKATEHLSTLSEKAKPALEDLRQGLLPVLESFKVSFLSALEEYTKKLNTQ
UniProt Q9BXS5: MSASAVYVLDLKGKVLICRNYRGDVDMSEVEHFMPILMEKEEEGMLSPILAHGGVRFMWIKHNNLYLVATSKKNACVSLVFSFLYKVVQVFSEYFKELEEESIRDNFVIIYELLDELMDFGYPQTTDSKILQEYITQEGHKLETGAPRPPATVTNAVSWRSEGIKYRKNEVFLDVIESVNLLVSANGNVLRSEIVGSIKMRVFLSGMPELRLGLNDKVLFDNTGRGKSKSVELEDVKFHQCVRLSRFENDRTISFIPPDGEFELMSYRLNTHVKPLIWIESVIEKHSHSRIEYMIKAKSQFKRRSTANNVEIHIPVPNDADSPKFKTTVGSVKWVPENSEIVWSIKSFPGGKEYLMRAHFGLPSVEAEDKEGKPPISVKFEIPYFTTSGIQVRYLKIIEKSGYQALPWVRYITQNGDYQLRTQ
UniProt Q9NRW3: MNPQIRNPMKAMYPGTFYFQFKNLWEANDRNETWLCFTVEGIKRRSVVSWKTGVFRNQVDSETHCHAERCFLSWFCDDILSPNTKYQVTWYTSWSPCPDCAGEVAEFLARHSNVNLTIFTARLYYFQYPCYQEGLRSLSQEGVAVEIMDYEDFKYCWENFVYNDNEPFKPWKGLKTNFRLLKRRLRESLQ
UniProt P61204: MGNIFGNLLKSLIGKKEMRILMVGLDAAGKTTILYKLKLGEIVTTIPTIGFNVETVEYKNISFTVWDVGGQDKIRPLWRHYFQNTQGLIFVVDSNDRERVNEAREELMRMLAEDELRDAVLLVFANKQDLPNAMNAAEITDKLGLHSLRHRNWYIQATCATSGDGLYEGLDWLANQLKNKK
UniProt Q63HQ0: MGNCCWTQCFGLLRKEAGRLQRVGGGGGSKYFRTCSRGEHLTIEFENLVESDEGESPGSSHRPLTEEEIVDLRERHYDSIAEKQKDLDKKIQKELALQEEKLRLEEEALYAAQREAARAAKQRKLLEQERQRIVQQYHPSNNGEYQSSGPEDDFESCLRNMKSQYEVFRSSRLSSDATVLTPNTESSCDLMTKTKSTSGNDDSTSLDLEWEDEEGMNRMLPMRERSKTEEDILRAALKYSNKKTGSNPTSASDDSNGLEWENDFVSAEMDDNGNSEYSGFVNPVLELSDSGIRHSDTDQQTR
UniProt Q92572: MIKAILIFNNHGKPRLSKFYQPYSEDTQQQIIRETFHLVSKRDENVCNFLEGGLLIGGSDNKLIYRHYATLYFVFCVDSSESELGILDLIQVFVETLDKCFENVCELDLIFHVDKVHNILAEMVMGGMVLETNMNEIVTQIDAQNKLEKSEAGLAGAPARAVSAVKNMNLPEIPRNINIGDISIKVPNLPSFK
UniProt Q9BUR5: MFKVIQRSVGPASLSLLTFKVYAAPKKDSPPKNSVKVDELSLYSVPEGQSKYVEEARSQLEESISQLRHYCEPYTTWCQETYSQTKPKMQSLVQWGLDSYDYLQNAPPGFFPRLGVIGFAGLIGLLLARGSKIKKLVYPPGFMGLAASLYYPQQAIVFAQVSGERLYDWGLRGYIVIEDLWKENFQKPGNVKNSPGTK
UniProt Q6UXV4: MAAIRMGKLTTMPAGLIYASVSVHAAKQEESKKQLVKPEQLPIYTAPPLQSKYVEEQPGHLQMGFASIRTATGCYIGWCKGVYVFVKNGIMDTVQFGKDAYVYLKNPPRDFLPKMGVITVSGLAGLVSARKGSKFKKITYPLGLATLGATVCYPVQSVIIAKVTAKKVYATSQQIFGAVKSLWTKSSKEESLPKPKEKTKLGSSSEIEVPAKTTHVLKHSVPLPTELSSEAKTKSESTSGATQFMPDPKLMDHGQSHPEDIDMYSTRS
UniProt Q9Y6D5: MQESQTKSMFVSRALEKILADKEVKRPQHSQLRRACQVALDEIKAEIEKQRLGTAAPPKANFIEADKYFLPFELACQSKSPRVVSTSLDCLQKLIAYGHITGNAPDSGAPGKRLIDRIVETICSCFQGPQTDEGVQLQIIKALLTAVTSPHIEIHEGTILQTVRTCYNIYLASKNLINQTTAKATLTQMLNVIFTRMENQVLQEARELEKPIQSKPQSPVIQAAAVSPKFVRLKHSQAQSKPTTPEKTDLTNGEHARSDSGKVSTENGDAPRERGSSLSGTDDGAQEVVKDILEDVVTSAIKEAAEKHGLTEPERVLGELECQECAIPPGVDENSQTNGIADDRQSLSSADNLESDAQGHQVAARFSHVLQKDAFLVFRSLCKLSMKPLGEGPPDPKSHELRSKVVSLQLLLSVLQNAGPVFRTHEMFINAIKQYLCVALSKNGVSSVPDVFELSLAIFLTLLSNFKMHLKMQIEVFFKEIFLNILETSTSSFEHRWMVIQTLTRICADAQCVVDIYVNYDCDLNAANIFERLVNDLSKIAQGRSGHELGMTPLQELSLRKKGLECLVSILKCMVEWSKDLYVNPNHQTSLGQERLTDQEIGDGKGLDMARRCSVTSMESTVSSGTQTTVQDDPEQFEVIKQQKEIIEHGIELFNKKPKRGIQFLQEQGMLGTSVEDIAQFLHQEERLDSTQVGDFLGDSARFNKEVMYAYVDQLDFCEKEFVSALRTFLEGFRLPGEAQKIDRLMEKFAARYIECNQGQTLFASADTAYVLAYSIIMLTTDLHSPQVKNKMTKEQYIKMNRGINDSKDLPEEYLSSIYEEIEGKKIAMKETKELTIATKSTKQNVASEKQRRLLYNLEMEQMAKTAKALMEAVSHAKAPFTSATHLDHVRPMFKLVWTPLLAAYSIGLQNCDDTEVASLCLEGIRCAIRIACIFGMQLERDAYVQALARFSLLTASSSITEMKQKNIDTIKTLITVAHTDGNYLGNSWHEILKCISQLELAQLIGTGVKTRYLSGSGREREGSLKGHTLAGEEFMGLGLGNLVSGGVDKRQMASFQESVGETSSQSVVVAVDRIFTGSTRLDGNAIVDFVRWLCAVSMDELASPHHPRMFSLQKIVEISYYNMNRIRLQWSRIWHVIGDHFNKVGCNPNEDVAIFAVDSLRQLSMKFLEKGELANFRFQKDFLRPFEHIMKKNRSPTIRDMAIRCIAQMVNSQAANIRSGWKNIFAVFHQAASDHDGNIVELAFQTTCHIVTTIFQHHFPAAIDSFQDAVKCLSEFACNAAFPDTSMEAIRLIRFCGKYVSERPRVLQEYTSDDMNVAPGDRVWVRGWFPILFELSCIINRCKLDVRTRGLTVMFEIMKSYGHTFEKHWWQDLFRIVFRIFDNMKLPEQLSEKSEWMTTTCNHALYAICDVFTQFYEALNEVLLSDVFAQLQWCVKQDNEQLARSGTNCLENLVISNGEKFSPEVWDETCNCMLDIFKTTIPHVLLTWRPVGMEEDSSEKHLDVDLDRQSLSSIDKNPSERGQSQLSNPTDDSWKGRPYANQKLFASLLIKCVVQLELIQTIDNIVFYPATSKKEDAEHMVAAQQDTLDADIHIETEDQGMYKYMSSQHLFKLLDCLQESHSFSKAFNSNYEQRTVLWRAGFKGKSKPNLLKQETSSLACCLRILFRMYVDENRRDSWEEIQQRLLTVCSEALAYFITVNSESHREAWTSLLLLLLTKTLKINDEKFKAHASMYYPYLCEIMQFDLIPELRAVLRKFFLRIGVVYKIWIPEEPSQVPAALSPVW
UniProt P09525: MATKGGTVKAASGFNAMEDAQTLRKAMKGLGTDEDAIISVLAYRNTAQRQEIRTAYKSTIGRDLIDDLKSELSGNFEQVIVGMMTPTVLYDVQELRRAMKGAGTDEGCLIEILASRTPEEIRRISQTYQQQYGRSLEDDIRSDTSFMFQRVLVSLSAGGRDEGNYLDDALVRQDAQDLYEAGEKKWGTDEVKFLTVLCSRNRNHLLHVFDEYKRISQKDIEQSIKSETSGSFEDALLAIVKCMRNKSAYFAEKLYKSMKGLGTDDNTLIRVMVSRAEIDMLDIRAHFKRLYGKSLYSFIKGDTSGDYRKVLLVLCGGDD
UniProt P27695, whole entry, looked up: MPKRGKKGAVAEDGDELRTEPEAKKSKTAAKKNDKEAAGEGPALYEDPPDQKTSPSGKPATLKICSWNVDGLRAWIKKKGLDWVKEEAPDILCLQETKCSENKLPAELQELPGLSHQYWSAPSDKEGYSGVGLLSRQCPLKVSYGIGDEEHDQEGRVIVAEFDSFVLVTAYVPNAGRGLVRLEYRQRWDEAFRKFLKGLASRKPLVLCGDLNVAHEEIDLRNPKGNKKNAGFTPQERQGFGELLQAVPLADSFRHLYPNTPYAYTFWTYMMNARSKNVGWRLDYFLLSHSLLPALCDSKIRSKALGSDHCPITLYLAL
UniProt Q9UJX3, whole entry, looked up: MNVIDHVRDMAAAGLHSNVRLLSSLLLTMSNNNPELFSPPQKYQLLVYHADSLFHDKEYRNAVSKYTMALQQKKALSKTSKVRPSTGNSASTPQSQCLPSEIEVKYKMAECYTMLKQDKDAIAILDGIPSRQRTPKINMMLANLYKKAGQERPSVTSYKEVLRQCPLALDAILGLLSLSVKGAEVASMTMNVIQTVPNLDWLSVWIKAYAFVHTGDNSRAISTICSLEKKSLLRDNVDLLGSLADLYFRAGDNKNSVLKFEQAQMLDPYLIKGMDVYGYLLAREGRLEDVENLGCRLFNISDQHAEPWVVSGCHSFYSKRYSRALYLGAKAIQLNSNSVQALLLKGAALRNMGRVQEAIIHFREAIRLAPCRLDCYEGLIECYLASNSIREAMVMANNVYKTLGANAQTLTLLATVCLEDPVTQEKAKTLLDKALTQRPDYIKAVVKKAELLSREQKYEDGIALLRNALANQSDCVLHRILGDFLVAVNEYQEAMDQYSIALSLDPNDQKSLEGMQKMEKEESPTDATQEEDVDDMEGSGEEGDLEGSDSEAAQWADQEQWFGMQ
UniProt Q9BZZ5: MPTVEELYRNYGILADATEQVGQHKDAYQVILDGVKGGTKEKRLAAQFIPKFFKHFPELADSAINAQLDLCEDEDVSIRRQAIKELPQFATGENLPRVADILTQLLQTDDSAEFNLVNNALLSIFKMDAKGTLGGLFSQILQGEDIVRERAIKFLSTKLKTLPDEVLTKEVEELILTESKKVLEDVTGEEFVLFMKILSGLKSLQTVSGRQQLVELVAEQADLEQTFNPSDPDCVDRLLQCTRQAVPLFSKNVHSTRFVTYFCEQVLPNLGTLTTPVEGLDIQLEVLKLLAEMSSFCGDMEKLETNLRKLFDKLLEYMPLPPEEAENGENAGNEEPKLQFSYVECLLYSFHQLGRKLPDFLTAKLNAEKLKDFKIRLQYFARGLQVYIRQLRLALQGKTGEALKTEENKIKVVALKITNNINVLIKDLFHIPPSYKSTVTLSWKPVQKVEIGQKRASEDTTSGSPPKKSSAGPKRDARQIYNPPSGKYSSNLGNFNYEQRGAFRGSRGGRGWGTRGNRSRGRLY

[2] = compound: C[C@@H](Oc1cc(-c2cnn(C3CCNCC3)c2)cnc1N)c1c(Cl)ccc(F)c1Cl [crizotinib]
Procedure, shortened: as §1

[3] = compound: C[C@@H]1COCCN1C2=NC(=NC(=C2)C3(CC3)S(=O)(=O)C)C4=C5C=CNC5=CC=C4
Procedure, shortened: as §1

[4] = compound: C[C@H](C1=CC=C(C=C1)C(=O)NC2=C3C=CNC3=NC=C2)N
Procedure, shortened: as §1

[5] = compound: C[C@H](Nc1ncnc2nc[nH]c12)c1cc2cccc(Cl)c2c(=O)n1-c1ccccc1 [duvelisib]
Procedure, shortened: as §1

[6] = compound: Cc1cc(Nc2cc(CN3CCOCC3)c3nc(C)c(Cc4ccc(Cl)cc4F)n3n2)n[nH]1 [gandotinib]
Procedure, shortened: as §1

[7] = compound: Cc1cc(Nc2cc(N3CCN(C)CC3)nc(Sc3ccc(NC(=O)C4CC4)cc3)n2)n[nH]1 [tozasertib]
Procedure, shortened: as §1

[8] = compound: Cc1cc(SCc2sc(-c3ccc(C(F)(F)F)cc3)nc2C)ccc1OCC(=O)O
Procedure, shortened: as §1

[9] = compound: Cc1ccc(-n2nc(C(C)(C)C)cc2NC(=O)Nc2ccc(OCCN3CCOCC3)c3ccccc23)cc1 [doramapimod]
Procedure, shortened: as §1

[10] = compound: Cc1ccc(C(=O)N(CCCN)[C@@H](c2nc3cc(Cl)ccc3c(=O)n2Cc2ccccc2)C(C)C)cc1 [ispinesib]
Procedure, shortened: as §1

[11] = compound: Cc1ccc(NC(=O)c2ccc(CN3CC[C@H](N(C)C)C3)c(C(F)(F)F)c2)cc1Nc1nccc(-c2cncnc2)n1 [bafetinib]
Procedure, shortened: as §1

[12] = compound: Cc1cccc(CC(=O)N2CCc3c2ccc(-c2cn(C)c4ncnc(N)c24)c3F)n1
Procedure, shortened: as §1

[13] = compound: Cc1cn(-c2cc(NC(=O)c3ccc(C)c(Nc4nccc(-c5cccnc5)n4)c3)cc(C(F)(F)F)c2)cn1 [nilotinib]
Procedure, shortened: as §1

[14] = compound: Cc1nc(Nc2n[nH]c3c2CN(C(=O)N[C@H](CN(C)C)c2ccccc2)C3(C)C)c2sccc2n1
Procedure, shortened: as §1

[15] = compound: Cc1nc(Nc2ncc(C(=O)Nc3c(C)cccc3Cl)s2)cc(N2CCN(CCO)CC2)n1 [dasatinib]
Procedure, shortened: as §1

[16] = compound: Cc1ncc(-c2ccnc(Nc3ccc(S(C)(=O)=O)cc3)n2)n1C(C)C
Procedure, shortened: as §1

[17] = compound: Cn1cc(-c2ccc3c(c2)CCN3C(=O)Cc2cccc(C(F)(F)F)c2)c2c(N)ncnc21
Procedure, shortened: as §1

[18] = compound: Cn1cc(-c2ccc3nnc(C(F)(F)c4ccc5ncccc5c4)n3n2)cn1
Procedure, shortened: as §1

[19] = compound: Cn1cncc1[C@@](N)(c1ccc(Cl)cc1)c1ccc2c(c1)c(-c1cccc(Cl)c1)cc(=O)n2C [tipifarnib]
Procedure, shortened: as §1

[20] = compound: FC(F)(F)c1ccc(/C=C/c2nc(COc3ccc(CCCCn4ccnn4)cc3)co2)cc1 [mubritinib]
Procedure, shortened: as §1

Measured: log2 fold change

ANO6 isoform 2 (UniProt Q4KMQ2)
inactive: [1] 0.034 | [2] -0.033 | [3] 0.176 | [4] -0.163 | [5] 0.052 | [6] -0.121 | [7] -0.024 | [8] -0.015 | [9] -0.035 | [10] -0.159 | [11] 0.003 | [12] 0.014 | [13] 0.013 | [14] -0.048 | [15] 0.006 | [16] 0.009 | [17] 0.055 | [18] 0.009 | [19] 0.002 | [20] 0.039

APOA1 (UniProt P02647)
inactive: [1] 0.036 | [2] 0.211 | [3] 0.182 | [4] 0.296 | [5] 0.137 | [6] -0.069 | [7] 0.036 | [8] -0.13 | [9] -0.068 | [10] 0.075 | [11] 0.086 | [12] -0.157 | [13] 0.035 | [14] -0.018 | [15] 0.004 | [16] 0.163 | [17] 0.261 | [18] 0.152 | [19] 0.326 | [20] -0.145

AP1M1 (UniProt Q9BXS5)
inactive: [1] 0.046 | [2] 0.006 | [3] 0.037 | [4] 0.031 | [5] -0.012 | [6] -0.095 | [7] 0.039 | [8] 0 | [9] 0.004 | [10] -0.002 | [11] -0.011 | [12] 0.014 | [13] -0.042 | [14] -0.062 | [15] 0.011 | [16] 0.025 | [17] -0.035 | [18] -0.017 | [19] -0.01 | [20] 0.004

APOBEC3C (UniProt Q9NRW3)
inactive: [1] -0.009 | [2] -0.065 | [3] -0.233 | [4] 0.417 | [5] -0.162 | [6] 0.03 | [7] 0 | [8] -0.011 | [9] 0.245 | [10] -0.149 | [11] 0.134 | [12] -0.111 | [13] 0.019 | [14] -0.001 | [15] 0.1 | [16] 0.006 | [17] -0.156 | [18] -0.153 | [19] 0.239 | [20] -0.036

ARF3 (UniProt P61204)
inactive: [1] -0.022 | [2] 0.037 | [3] 0.055 | [4] -0.054 | [5] 0.032 | [6] -0.135 | [7] -0.031 | [8] -0.015 | [9] -0.013 | [10] 0.063 | [11] 0.004 | [12] -0.017 | [13] -0.011 | [14] 0.016 | [15] 0.032 | [16] 0.005 | [17] 0.02 | [18] 0.012 | [19] 0.001 | [20] 0.036

AP1AR (UniProt Q63HQ0)
inactive: [1] -0.012 | [2] 0.022 | [3] -0.123 | [4] 0.109 | [5] -0.047 | [6] -0.211 | [7] -0.037 | [8] -0.097 | [9] 0.002 | [10] -0.109 | [11] -0.031 | [12] -0.107 | [13] 0.002 | [14] -0.054 | [15] 0.058 | [16] -0.015 | [17] -0.041 | [18] 0.02 | [19] 0.015 | [20] 0.086

AP3S1 (UniProt Q92572)
inactive: [1] -0.001 | [2] -0.064 | [3] 0.031 | [4] 0.067 | [5] 0.023 | [6] -0.002 | [7] 0.01 | [8] 0.053 | [9] 0.001 | [10] -0.026 | [11] -0.018 | [12] 0.016 | [13] -0.034 | [14] -0.017 | [15] -0.043 | [16] -0.015 | [17] 0.032 | [18] -0.024 | [19] -0.074 | [20] 0.055

AP3D1 isoform 5 (UniProt O14617)
inactive: [1] 0.012 | [2] -0.077 | [3] -0.028 | [4] 0.036 | [5] -0.019 | [6] -0.002 | [7] -0.018 | [8] 0.024 | [9] 0.018 | [10] -0.05 | [11] 0.018 | [12] 0.046 | [13] -0.085 | [14] -0.03 | [15] -0.091 | [16] 0.013 | [17] -0.002 | [18] -0.028 | [19] -0.031 | [20] 0.023

APOO (UniProt Q9BUR5)
inactive: [1] -0.04 | [2] -0.057 | [3] 0.092 | [4] -0.025 | [5] 0.038 | [6] -0.1 | [7] 0.007 | [8] -0.025 | [9] -0.035 | [10] -0.052 | [11] -0.113 | [12] 0.018 | [13] -0.001 | [14] 0.021 | [15] 0.036 | [16] -0.01 | [17] 0.023 | [18] 0.075 | [19] 0.002 | [20] 0.046

APOOL (UniProt Q6UXV4)
inactive: [1] 0.006 | [2] 0.058 | [3] 0.002 | [4] -0.015 | [5] 0.003 | [6] -0.035 | [7] 0.02 | [8] -0.053 | [9] -0.015 | [10] 0.017 | [11] -0.051 | [12] -0.015 | [13] 0.019 | [14] 0 | [15] 0.019 | [16] 0.003 | [17] -0.011 | [18] 0.016 | [19] 0.009 | [20] 0.049

ARFGEF2 (UniProt Q9Y6D5)
inactive: [1] 0.028 | [2] -0.086 | [3] -0.013 | [4] 0.018 | [5] 0.018 | [6] -0.018 | [7] -0.028 | [8] 0.027 | [9] 0.045 | [10] -0.171 | [11] -0.023 | [12] 0.038 | [13] 0.01 | [14] -0.08 | [15] -0.026 | [16] 0.032 | [17] 0.007 | [18] -0.009 | [19] -0.016 | [20] -0.041

ANXA4 (UniProt P09525)
inactive: [1] 0 | [2] -0.038 | [3] 0.075 | [4] 0.004 | [5] 0.017 | [6] -0.067 | [7] -0.013 | [8] 0.052 | [9] -0.06 | [10] 0.012 | [11] -0.023 | [12] 0.06 | [13] 0.023 | [14] -0.045 | [15] -0.041 | [16] 0.044 | [17] 0.011 | [18] 0.081 | [19] -0.034 | [20] 0.019

APEX1 (UniProt P27695)
inactive: [1] 0.046 | [2] -0.053 | [3] 0.041 | [4] -0.056 | [5] -0.003 | [6] -0.056 | [7] -0.039 | [8] 0.008 | [9] -0.032 | [10] -0.006 | [11] 0.016 | [12] 0.029 | [13] -0.017 | [14] 0.056 | [15] -0.038 | [16] -0.019 | [17] 0.044 | [18] 0.064 | [19] -0.066 | [20] 0.081

ANAPC7 (UniProt Q9UJX3)
inactive: [1] 0.002 | [2] -0.017 | [3] 0.024 | [4] -0.034 | [5] -0.038 | [6] -0.026 | [7] 0.037 | [8] 0.028 | [9] 0.01 | [10] 0.008 | [11] 0.028 | [12] 0.056 | [13] -0.025 | [14] -0.011 | [15] -0.066 | [16] -0.052 | [17] -0.002 | [18] -0.056 | [19] 0.006 | [20] -0.04

2 consecutive records out of the list so far, quoted:
ANXA4 (UniProt P09525)
inactive: [1] 0 | [2] -0.038 | [3] 0.075 | [4] 0.004 | [5] 0.017 | [6] -0.067 | [7] -0.013 | [8] 0.052 | [9] -0.06 | [10] 0.012 | [11] -0.023 | [12] 0.06 | [13] 0.023 | [14] -0.045 | [15] -0.041 | [16] 0.044 | [17] 0.011 | [18] 0.081 | [19] -0.034 | [20] 0.019

APEX1 (UniProt P27695)
inactive: [1] 0.046 | [2] -0.053 | [3] 0.041 | [4] -0.056 | [5] -0.003 | [6] -0.056 | [7] -0.039 | [8] 0.008 | [9] -0.032 | [10] -0.006 | [11] 0.016 | [12] 0.029 | [13] -0.017 | [14] 0.056 | [15] -0.038 | [16] -0.019 | [17] 0.044 | [18] 0.064 | [19] -0.066 | [20] 0.081

(further entries)

API5 (UniProt Q9BZZ5)
inactive: [1] 0.014 | [2] 0.013 | [3] 0.079 | [4] -0.026 | [5] 0.019 | [6] -0.013 | [7] -0.014 | [8] -0.019 | [9] -0.046 | [10] 0.101 | [11] -0.023 | [12] 0.006 | [13] -0.004 | [14] 0 | [15] -0.009 | [16] 0.003 | [17] 0.028 | [18] -0.002 | [19] -0.006 | [20] 0.029

ANKRD13A (UniProt Q8IZ07)
inactive: [1] 0.006 | [2] 0.03 | [3] -0.053 | [4] 0.088 | [5] 0.108 | [6] 0.098 | [7] 0.046 | [8] -0.007 | [9] 0.05 | [10] -0.022 | [11] 0.008 | [12] -0.039 | [13] 0.028 | [14] -0.08 | [15] -0.059 | [16] 0.16 | [17] 0.065 | [18] -0.041 | [19] 0.007 | [20] 0.019
